Laboratory results reported in patent EP3173487A1 (priority 2015, dated 2017).

Tested on: haloalkane dehalogenase LinB
Assay type: biochemical, Sphingobium japonicum UT26

In the case of `ClCCOCCCl` [bis(2-chloroethyl) ether], the “detected visually down to” value was 2.0 mg/L and the “saturation of the signal at concentrations of analyte” value was “above 2 mg/L”.
